# Measurements taken from the supplement of paper PMC7666118.
# By UniProt entry, the sequences of proteins in these tests, tags left out. Where a name states a change or a piece, a line headed by the entry shows the natural chain unless it says otherwise.
# UniProt Q9H9S5: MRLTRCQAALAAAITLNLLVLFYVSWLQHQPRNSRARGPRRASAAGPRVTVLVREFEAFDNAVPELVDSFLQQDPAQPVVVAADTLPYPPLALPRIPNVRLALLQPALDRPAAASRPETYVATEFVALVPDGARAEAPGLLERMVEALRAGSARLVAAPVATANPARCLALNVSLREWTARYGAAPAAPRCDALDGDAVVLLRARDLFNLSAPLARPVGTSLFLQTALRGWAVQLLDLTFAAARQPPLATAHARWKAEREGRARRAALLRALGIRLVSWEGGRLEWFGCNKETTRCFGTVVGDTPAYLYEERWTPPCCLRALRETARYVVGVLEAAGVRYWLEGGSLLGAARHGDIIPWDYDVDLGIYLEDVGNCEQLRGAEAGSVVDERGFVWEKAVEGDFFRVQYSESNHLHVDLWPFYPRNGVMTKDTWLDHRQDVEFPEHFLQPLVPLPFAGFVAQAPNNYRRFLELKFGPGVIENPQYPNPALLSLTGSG
# UniProt A0FGR8: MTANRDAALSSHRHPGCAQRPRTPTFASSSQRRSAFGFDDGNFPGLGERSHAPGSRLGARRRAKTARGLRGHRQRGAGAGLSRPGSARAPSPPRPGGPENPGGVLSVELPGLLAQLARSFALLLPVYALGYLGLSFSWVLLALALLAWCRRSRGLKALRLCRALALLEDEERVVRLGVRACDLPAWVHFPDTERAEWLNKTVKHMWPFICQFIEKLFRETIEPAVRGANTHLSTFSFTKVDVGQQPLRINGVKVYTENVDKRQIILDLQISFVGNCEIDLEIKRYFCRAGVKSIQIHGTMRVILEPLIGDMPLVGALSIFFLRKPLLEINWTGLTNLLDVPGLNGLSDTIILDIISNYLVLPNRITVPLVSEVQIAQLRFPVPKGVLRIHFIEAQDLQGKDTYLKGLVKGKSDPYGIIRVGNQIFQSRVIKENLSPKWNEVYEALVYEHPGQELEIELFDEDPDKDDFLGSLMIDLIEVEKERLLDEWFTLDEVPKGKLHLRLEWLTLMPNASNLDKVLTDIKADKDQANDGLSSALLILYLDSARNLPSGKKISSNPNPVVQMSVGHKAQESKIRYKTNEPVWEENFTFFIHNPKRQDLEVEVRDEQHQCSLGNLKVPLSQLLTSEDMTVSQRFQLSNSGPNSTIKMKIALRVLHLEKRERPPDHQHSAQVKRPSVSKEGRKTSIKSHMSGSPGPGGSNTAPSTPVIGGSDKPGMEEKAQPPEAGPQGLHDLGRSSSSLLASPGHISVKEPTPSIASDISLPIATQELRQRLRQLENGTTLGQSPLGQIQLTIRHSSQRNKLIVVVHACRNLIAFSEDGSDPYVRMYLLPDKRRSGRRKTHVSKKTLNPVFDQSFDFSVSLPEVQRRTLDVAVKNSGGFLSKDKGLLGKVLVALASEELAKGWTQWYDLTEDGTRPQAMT
# UniProt P02794, whole entry: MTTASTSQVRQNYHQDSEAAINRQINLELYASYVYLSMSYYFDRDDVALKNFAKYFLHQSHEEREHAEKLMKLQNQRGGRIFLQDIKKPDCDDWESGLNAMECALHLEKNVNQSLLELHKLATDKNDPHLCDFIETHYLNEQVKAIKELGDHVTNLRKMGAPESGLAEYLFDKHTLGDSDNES
# UniProt P34910: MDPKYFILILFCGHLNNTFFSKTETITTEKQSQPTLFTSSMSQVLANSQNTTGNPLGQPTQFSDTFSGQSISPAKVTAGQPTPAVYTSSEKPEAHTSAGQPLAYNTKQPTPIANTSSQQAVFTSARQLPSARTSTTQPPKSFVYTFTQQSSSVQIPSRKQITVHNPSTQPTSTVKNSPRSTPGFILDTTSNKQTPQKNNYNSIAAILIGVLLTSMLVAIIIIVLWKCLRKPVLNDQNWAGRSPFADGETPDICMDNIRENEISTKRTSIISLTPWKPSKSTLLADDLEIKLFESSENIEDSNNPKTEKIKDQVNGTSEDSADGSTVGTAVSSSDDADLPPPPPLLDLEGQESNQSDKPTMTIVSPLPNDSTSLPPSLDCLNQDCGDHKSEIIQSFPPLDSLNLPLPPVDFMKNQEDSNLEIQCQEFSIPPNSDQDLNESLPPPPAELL
# UniProt Q8NFC6: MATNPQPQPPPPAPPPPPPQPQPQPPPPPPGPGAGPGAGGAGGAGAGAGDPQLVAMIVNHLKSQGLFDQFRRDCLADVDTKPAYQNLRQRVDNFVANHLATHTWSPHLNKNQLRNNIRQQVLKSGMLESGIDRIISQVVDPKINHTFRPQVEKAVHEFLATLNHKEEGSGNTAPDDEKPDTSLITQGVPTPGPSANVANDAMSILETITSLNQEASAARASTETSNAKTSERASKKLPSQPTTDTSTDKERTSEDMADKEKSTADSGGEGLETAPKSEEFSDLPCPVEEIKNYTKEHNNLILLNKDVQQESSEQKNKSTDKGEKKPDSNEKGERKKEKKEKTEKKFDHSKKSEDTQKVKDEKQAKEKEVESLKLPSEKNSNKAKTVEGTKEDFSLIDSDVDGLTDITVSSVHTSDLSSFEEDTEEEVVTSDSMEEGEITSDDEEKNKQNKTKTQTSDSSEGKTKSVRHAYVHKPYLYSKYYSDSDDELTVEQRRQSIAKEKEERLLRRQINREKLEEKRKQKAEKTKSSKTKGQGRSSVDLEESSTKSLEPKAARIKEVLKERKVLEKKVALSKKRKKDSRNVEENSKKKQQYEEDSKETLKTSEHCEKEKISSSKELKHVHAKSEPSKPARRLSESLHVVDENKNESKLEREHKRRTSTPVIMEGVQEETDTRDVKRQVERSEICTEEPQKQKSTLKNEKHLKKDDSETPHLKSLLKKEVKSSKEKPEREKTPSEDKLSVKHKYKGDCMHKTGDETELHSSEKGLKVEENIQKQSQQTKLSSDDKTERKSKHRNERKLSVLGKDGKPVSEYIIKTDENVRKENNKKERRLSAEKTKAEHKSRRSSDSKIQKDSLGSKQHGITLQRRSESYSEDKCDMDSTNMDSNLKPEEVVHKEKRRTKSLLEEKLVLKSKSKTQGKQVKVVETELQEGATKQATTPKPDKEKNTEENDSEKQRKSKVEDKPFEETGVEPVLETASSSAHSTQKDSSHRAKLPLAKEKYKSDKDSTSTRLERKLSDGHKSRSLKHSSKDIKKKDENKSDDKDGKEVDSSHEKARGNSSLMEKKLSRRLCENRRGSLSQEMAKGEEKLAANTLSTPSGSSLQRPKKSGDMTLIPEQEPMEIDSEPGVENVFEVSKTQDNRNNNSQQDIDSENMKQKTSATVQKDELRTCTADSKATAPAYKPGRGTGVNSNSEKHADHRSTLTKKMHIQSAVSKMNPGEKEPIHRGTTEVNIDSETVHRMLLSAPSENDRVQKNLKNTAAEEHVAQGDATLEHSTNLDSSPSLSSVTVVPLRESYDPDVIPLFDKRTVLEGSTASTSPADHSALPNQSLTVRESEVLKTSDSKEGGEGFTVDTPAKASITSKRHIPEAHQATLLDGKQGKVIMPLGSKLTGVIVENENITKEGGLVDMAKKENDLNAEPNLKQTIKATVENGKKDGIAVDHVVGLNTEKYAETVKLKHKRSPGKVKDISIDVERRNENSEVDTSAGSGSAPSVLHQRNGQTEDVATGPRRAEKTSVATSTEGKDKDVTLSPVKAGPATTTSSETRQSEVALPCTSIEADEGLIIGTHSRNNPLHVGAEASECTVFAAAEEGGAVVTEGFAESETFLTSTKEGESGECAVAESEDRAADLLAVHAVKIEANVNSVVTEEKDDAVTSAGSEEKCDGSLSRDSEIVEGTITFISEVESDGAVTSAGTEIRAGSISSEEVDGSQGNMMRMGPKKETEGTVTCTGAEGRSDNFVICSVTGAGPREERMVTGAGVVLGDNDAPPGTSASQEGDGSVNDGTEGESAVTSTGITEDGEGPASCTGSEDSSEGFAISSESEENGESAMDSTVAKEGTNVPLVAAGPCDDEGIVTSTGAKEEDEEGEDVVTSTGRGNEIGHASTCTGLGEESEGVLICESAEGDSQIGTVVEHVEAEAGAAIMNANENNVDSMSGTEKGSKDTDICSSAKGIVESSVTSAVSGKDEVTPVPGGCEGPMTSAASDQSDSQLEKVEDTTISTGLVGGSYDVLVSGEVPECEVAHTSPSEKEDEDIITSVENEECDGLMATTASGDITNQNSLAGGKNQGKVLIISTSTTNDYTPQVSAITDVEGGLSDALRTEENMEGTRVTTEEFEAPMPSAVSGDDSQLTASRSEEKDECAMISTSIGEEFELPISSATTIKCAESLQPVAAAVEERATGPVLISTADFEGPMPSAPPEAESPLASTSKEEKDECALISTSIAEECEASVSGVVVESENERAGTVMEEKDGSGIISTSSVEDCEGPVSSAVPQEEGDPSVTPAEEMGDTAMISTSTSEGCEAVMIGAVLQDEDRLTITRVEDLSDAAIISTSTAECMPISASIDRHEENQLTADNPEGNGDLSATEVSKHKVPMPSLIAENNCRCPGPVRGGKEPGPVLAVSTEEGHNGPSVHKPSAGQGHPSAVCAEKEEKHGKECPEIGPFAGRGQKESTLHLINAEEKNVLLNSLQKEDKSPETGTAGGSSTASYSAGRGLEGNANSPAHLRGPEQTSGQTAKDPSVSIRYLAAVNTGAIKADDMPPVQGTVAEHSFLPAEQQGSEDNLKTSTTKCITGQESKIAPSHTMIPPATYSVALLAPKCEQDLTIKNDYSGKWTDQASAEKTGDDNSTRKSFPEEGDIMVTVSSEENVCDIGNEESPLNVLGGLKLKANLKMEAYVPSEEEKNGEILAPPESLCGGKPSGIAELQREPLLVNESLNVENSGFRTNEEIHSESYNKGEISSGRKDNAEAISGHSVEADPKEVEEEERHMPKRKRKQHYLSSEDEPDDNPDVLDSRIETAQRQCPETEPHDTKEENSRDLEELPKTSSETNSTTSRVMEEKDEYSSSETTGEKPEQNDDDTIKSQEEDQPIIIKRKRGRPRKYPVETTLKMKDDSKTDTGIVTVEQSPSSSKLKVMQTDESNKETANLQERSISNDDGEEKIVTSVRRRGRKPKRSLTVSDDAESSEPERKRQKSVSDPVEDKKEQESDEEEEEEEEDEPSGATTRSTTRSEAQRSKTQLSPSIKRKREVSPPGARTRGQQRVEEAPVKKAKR
# UniProt Q86UX7, whole entry: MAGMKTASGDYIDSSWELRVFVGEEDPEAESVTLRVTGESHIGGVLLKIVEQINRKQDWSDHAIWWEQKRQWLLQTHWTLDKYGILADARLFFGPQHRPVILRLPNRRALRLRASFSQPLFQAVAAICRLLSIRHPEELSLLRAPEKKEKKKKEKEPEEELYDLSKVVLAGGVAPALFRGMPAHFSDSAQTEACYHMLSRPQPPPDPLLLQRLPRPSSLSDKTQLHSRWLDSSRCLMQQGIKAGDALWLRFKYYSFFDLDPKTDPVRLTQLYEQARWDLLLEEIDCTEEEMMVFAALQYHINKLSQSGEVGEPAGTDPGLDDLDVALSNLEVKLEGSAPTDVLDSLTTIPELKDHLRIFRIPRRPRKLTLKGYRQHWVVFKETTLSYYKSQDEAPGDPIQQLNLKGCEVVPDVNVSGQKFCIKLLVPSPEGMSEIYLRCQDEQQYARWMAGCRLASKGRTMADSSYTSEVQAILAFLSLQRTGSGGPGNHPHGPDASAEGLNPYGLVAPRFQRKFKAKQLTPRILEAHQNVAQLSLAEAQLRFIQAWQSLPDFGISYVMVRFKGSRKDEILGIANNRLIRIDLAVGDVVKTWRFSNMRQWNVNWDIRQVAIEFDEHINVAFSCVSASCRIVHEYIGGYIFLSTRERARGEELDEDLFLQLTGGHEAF
# UniProt P26885: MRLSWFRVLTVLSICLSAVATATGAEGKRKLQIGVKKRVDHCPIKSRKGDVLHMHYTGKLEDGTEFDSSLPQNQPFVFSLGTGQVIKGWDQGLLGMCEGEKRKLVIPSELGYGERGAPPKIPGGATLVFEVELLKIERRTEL
# UniProt Q00688: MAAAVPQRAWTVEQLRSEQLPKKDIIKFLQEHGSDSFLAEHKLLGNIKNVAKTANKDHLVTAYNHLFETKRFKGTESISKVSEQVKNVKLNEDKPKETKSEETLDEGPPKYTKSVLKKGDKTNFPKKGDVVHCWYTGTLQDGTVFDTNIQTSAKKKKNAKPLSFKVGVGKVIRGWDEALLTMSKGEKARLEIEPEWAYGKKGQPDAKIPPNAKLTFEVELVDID
# UniProt Q13868, whole entry: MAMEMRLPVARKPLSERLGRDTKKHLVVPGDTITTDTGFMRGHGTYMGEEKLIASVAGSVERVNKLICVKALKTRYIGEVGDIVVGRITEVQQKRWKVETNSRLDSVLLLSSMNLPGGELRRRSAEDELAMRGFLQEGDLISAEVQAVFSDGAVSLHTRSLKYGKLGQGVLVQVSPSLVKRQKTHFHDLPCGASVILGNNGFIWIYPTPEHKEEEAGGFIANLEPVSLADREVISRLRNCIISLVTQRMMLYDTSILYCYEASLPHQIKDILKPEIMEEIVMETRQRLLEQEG
# The list shows a part of the results.
# Compound: COc1ccc(Cn2ccc3ccc(C(=O)NO)cc32)cc1
# Assay: dose-dependent thermal stabilisation call (2D-TPP, DLPTP, 10% FDR) (binary (1 = stabilised)); higher = stabilised by the compound
# Conditions: system: HL-60 intact cells; concentration range 0.04-10 µM
row,Target,dose-dependent thermal stabilisation call
1,FKRP (UniProt Q9H9S5),inactive: 0
2,FAM62B (UniProt A0FGR8),inactive: 0
3,FTH1 (UniProt P02794),inactive: 0
4,EVI2B (UniProt P34910),inactive: 0
5,FAM44A (UniProt Q8NFC6),inactive: 0
6,FERMT3 (UniProt Q86UX7),inactive: 0
7,FKBP2 (UniProt P26885),inactive: 0
8,EXOG (UniProt Q9Y2C4),inactive: 0
9,FKBP3 (UniProt Q00688),inactive: 0
10,FLG2 (UniProt Q5D862),inactive: 0
11,EXOSC2 (UniProt Q13868),inactive: 0

# 2 entries from above, with tabs:
row	Target	dose-dependent thermal stabilisation call
6	FERMT3 (UniProt Q86UX7)	inactive: 0
7	FKBP2 (UniProt P26885)	inactive: 0
